# Experimental data: PubChem BioAssay AID504467 (National Center for Advancing Translational Sciences (NCATS), 2011)
# Among all 330,000 compounds or so, about 7,700 (2.3%) were called active. Inconclusive results, whose numbers are uncertain, are shown with a selection of clear calls. Calls come from the whole dose curve; as a rule, active = well fitted inhibition curve with a large enough effect; inconclusive = small, poorly fitted or top-dose-only effect, or effect the other way; inactive = flat fitted curve, though single readings scatter. Potencies of inconclusive entries are doubtful fits and often do not repeat.
# Experiment: qHTS screen for small molecules that inhibit ELG1-dependent DNA repair in human embryonic kidney (HEK293T) cells expressing luciferase-tagged ELG1; note: nearly all actives have a fitted effect of over 55% in size
# Details: HEK293T ELG1-luciferase reporter, luminescence, 16 h, DNA damage induced by 5-fluorouridine; series mostly up to 46.1 µM
# Summary of the method: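 5-Fluorouridine DNA damage + compound/DMSO, 2,000 cells/well, 16 h, 37 °C/5% CO2. ONE-Glo, 30 min RT, luminescence. Readout = decrease in reporter signal.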
# Potency is the fitted concentration of half-maximal effect.
row,Compound,Potency
1,O=S(=O)(Nc1nc2c(s1)CCCC2)c1ccc(F)cc1,"inconclusive: 29.1 µM [activator, single point]"
2,CC(=O)Oc1c(/C=C(\C#N)C(N)=O)[nH]c2ccccc12,active: 20.6 µM
3,Cc1ccc(-n2ncc3c(NCCCn4ccnc4)ncnc32)c(C)c1,"inconclusive: 7.31 µM [inhibitor, partial curve, poor fit]"
4,CCS(=O)(=O)c1cc([N+](=O)[O-])c(Sc2ccccc2NC(C)=O)s1,"inconclusive: 18.3 µM [activator, partial curve, poor fit]"
5,COc1cccc(C(=O)/C=C2\Sc3ccccc3N2C)c1,"inconclusive: 2.59 µM [activator, partial curve]"
6,Cc1noc(C)c1CSc1nc2ccccc2c(=O)n1-c1ccccc1,inactive
7,Cc1cc(C)nc(N/N=C/C(Cl)=C/c2ccccc2)n1,"inconclusive: 18.4 µM [activator, partial curve]"
8,O=C(Nc1ccc(-c2nc3cc(Cl)ccc3o2)cc1)C1CCCO1 (centres undefined),"inconclusive: 2.59 µM [activator, partial curve]"
9,O=C(N/N=C/c1ccco1)c1ccccc1OCc1ccc(Br)cc1,"inconclusive: 20.6 µM [inhibitor, partial curve]"
10,Cn1c(=O)c2c(nc(N3CCCCC3)n2CCSc2nc3ccccc3s2)n(C)c1=O,inactive
11,Cc1nc(NCCc2ccccc2)sc1C(=O)O,"inconclusive: 20.6 µM [activator, single point]"
12,CCn1c(SCC(=O)N2CCN(c3ccccc3F)CC2)nnc1-c1ccoc1C,"inconclusive: 20.6 µM [inhibitor, single point]"
13,O=C(COc1nncc2ccccc12)NCC(F)(F)F,inactive
14,O=C(c1ccccc1Br)N1CCN(c2ccc([N+](=O)[O-])c(N3CCOCC3)c2)CC1,inactive
15,CN(C)c1ccc(N2C(=O)CSC2=S)cc1,"inconclusive: 29.1 µM [inhibitor, single point]"
16,COc1ccc(C(=O)c2oc3ccc(OC)cc3c2N)cc1,"inconclusive: 7.31 µM [activator, partial curve]"
17,Cc1cc(-c2ccccc2)n(-c2ccccc2)n1,"inconclusive: 11.2 µM [activator, partial curve, poor fit]"
18,CCc1ccccc1S(=O)(=O)Cc1ccc(C(=O)N2CCN(c3ccccn3)CC2)o1,"inconclusive: 18.4 µM [inhibitor, single point]"
19,Cc1noc(C)c1NC(=O)N(C)C[C@H]1Oc2c(NC(=O)Nc3ccc(C(F)(F)F)cc3)cccc2C(=O)N([C@H](C)CO)C[C@@H]1C,inactive
20,O=C(/C=C/c1cn(CC(O)CN2CCCCC2)c2ccccc12)c1cccs1 (centres undefined),inactive
21,O=C(CN1C(=O)CC(c2ccccc2)S(=O)(=O)c2ccccc21)N1CCCC1 (centres undefined),inactive
22,Cc1ccc(NC(=O)CSc2nc(O)cc(=O)n2-c2ccc(C)cc2)cc1,"inconclusive: 16.4 µM [activator, partial curve, poor fit]"
23,O=C(CSc1nc2cc(Cl)ccc2s1)Nc1cccc(S(=O)(=O)N2CCOCC2)c1,"inconclusive: 23.1 µM [inhibitor, partial curve]"

row,Compound,Potency
1,COc1ccc(C(O)(CCN2CCOCC2)c2ccccc2)cc1 (centres undefined),inactive
2,CC1CCC(NS(=O)(=O)c2ccc(Cl)nc2)CC1 (centres undefined),"inconclusive: 20.6 µM [activator, partial curve, poor fit]"
3,COc1ccc2[nH]cc(C(=O)CCl)c2c1,"inconclusive: 25.9 µM [inhibitor, single point]"
4,CC(=O)c1sc(NC(=O)c2cc(-c3ccccc3)nn2-c2ccccc2)nc1C,active: 14.6 µM
5,Cc1cc(NC(=O)CSc2nc(C(C)(C)C)nc3ccccc23)no1,inactive
6,CCN(CC)CCN(Cc1cc2ccc(C)cc2[nH]c1=O)C(=O)Nc1ccc(Cl)cc1,"inconclusive: 18.3 µM [activator, partial curve]"
7,CCc1ccc2oc(C(=O)Nc3nonc3CC)c(C)c2c1,"inconclusive: 9.2 µM [activator, partial curve]"
8,CCc1cc2cc(C)ccc2nc1SCC(=O)N1CC(=O)Nc2ccccc21,"inconclusive: 29.1 µM [inhibitor, single point]"
9,O=C(Nc1ccccc1Cl)c1ccn[nH]1,"inconclusive: 35.5 µM [activator, single point]"
10,COC(=O)c1c(NC(=O)Cc2cccs2)sc2c1CCC(C)C2 (centres undefined),"inconclusive: 9.2 µM [activator, partial curve]"
11,COc1ccc(C(=O)/C=C(\C)Nc2ccc3c(c2)OCO3)cc1,"inconclusive: 10 µM [activator, partial curve]"
12,CC1CCCCC12NC(=O)N(CC(=O)NNC(=O)c1ccc(Br)cc1)C2=O (centres undefined),inactive
13,Cc1ccc(C(=O)N2CCCC(C(=O)c3ccc(Oc4ccccc4)cc3)C2)cn1 (centres undefined),"inconclusive: 29.1 µM [inhibitor, single point]"
14,CC(C)Oc1ccc(Cc2n[nH]c(=S)n2Cc2ccccc2)cc1Cl,"inconclusive: 29.1 µM [inhibitor, single point]"
15,COc1cc(/C=N/NC(=O)CN(Cc2ccccc2)S(=O)(=O)c2ccc3c(c2)OCCO3)ccc1O,"inconclusive: 25.9 µM [inhibitor, partial curve, poor fit]"
16,Cc1ccc(NC(=O)CCc2ccc(S(=O)(=O)N3CCOCC3)cc2)c(Cl)c1,"inconclusive: 18.3 µM [inhibitor, partial curve, poor fit]"
17,O=C(NNC(=O)c1ccc(O)c(Cl)c1)c1cccc(S(=O)(=O)N2CCOCC2)c1,inactive
18,N#C/C(C(=O)N1CCOCC1)=C1\Nc2ccccc2S1,"inconclusive: 14.6 µM [activator, partial curve]"
19,CCCCNC(=O)Cn1c(=O)oc2cc(S(=O)(=O)N3CC(C)CC(C)C3)ccc21 (centres undefined),inactive
20,O=C(Cc1csc(NC(=O)Nc2cccc(Cl)c2)n1)NCc1cccnc1,inactive
21,COc1ccc(CCNC(=O)COc2cc(=O)n(C)c3ccccc23)cc1OC,"inconclusive: 18.3 µM [activator, partial curve]"
22,O=S(=O)(c1cc(Cl)ccc1Cl)N1CCc2ccccc21,inactive
23,CCc1ccc(NC(=O)NCc2ccccn2)cc1,"inconclusive: 25.9 µM [activator, single point]"

row,Compound,Potency
1,C=CCOc1ccc(C(=O)Nc2ccccc2C(=O)NCc2cccnc2)cc1,inactive
2,Cc1ccc(S(=O)(=O)N2CCOC2CNC(=O)C(=O)NCCCc2ccccc2)cc1 (centres undefined),"inconclusive: 23.1 µM [inhibitor, partial curve, poor fit]"
3,O=C(CSc1nnc(NC(=O)c2ccc(F)cc2)s1)NCc1ccco1,"inconclusive: 5.17 µM [activator, partial curve]"
4,CC(=O)Nc1ccc(S(=O)(=O)NCCC(=O)NCC2COc3ccccc3O2)cc1 (centres undefined),inactive
5,Cc1sc(NC(=O)c2ccco2)c(C(c2cccnc2)N2CCCC2)c1C (centres undefined),inactive
6,CCOc1c2ccc(C(=O)NCc3ccc(C)cc3)cc2nn1CC,inactive
7,COC(=O)c1ccccc1NC(=O)CSc1nnnn1CC(=O)O,"inconclusive: 29.1 µM [activator, partial curve, poor fit]"
8,COc1ccc(-c2ccc(SCC(=O)NC3CCCCC3)nn2)cc1,"inconclusive: 9.2 µM [activator, partial curve]"
9,CCOC(=O)c1nn(-c2ccc(Cl)cc2)c2nc(Nc3ccccc3)cc(=O)n12,"inconclusive: 23.1 µM [inhibitor, single point]"
10,CCOc1ccc(C(O)c2nccn2Cc2ccccc2)cc1 (centres undefined),inactive
11,CCN(C(=O)c1cccc(Br)c1)C1CCS(=O)(=O)C1 (centres undefined),"inconclusive: 0.366 µM [activator, partial curve, poor fit]"
12,CCC(=O)N1CCc2cc(S(=O)(=O)CCC(=O)Nc3ccc(C)c(F)c3)ccc21,"inconclusive: 1.16 µM [inhibitor, partial curve, poor fit]"
13,COCCCNC(=O)c1ccc2c(=O)n(Cc3ccc(OC)cc3)c(=O)[nH]c2c1,"inconclusive: 18.3 µM [inhibitor, partial curve, poor fit]"
14,CCOC(=O)C1(Cc2ccccc2)CCCN(C2CCCC2)C1 (centres undefined),inactive
15,Cc1ccc(C(=O)NCc2ccc3c(c2)OCO3)cc1S(=O)(=O)N1CCCCC1,"inconclusive: 16.4 µM [inhibitor, single point]"
16,Cc1ccc(SCC(=O)Nc2ccc(N3CCN(c4ccccc4)CC3)c(F)c2)cc1,"inconclusive: 29.1 µM [inhibitor, single point]"
17,O=C(O)CCC(=O)Nc1ccc(-c2nnc(-c3ccco3)o2)cc1,inactive
18,CCOC(=O)c1ccccc1NC(=O)CSc1ccc(-c2ccccn2)nn1,inactive
19,C#CCOCCOCCOCCNc1nc(N2CCN(C(=O)[C@H](CCCCN)n3cc(CN)nn3)CC2)nc(N2CCN(C(=O)[C@H](CCCCN)n3cc([C@@H](N)[C@H](C)CC)nn3)CC2)n1,"inconclusive: 23.1 µM [activator, single point]"
20,Cc1cccc(C)c1NC(=O)CNC(=O)C(C)N1CCN(c2cccc(Cl)c2)CC1 (centres undefined),"inconclusive: 16.4 µM [inhibitor, partial curve, poor fit]"
21,Cc1cccc(C)c1NC(=O)CN1CCN(C(=O)c2ccc(OCc3cn4ccccc4n3)cc2)CC1,"inconclusive: 14.6 µM [inhibitor, partial curve, poor fit]"
22,COc1ccc(OC)c(CN2CCN(C(=O)CCC(=O)c3cccs3)CC2)c1,inactive
23,Cc1ccc(C(=O)CSC2=C(C#N)C(c3ccco3)C3=C(CCCC3=O)N2)cc1 (centres undefined),active: 6.51 µM

# Ordered by length of the SMILES (smallest number first): part of the list above.
row,Compound,Potency
2,CC1CCC(NS(=O)(=O)c2ccc(Cl)nc2)CC1 (centres undefined),"inconclusive: 20.6 µM [activator, partial curve, poor fit]"
3,O=C(CSc1nnc(NC(=O)c2ccc(F)cc2)s1)NCc1ccco1,"inconclusive: 5.17 µM [activator, partial curve]"
19,Cc1noc(C)c1NC(=O)N(C)C[C@H]1Oc2c(NC(=O)Nc3ccc(C(F)(F)F)cc3)cccc2C(=O)N([C@H](C)CO)C[C@@H]1C,inactive
19,C#CCOCCOCCOCCNc1nc(N2CCN(C(=O)[C@H](CCCCN)n3cc(CN)nn3)CC2)nc(N2CCN(C(=O)[C@H](CCCCN)n3cc([C@@H](N)[C@H](C)CC)nn3)CC2)n1,"inconclusive: 23.1 µM [activator, single point]"
